Binding data for 2 molecules are collected here from US20050209137A1 (published 2005).

By UniProt entry, the sequences of proteins in these tests, tags left out. Residues count along the entry.
UniProt P41159, residues 22-167: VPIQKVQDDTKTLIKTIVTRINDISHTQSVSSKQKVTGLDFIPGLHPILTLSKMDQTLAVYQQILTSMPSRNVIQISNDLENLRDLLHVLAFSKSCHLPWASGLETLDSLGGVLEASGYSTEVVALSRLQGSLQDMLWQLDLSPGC
UniProt P48357, residues 22-839: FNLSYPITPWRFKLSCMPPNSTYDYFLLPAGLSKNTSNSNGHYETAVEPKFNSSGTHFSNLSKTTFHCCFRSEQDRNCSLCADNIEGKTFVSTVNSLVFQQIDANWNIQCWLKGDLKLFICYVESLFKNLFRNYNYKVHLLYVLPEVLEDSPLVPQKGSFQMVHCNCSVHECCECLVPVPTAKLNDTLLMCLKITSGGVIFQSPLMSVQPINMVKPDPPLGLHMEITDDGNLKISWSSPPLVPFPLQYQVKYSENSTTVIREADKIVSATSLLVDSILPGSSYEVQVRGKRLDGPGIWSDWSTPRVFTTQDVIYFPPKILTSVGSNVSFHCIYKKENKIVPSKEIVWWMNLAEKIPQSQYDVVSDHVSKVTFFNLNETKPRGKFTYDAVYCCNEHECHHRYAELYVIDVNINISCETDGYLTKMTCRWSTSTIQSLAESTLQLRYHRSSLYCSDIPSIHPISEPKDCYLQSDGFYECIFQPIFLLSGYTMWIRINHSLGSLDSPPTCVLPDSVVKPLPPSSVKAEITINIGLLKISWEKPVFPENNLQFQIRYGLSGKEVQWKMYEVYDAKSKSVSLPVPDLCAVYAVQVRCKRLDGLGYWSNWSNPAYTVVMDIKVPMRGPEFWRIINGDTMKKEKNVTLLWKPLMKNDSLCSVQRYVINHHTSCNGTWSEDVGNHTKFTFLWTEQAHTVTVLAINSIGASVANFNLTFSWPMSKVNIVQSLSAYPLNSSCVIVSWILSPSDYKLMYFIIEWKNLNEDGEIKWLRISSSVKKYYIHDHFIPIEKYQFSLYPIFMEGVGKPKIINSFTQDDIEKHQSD

In one experiment the target is recombinant human leptin (human, UniProt P41159 22-167). Description: mixing of serum samples, overnight at 4 C, then free leptin RMEIA.
Experiment [1] addresses T1, recombinant chicken leptin receptor binding domain (chLBD), amino acids 419-624 of the chicken leptin receptor (chicken).
T1 sequence: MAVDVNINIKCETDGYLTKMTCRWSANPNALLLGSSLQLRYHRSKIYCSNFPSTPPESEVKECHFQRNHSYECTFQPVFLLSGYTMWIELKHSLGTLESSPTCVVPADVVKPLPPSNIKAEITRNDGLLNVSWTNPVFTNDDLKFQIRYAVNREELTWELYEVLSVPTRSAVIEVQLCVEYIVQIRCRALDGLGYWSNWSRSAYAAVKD
The experiment in a line: gel filtration of hormone:chLBD mixtures at various molar ratios, retention times printed over the peaks.

No constants are given. Whether binding was seen depends on the method and setting. Some entries that bind do so weakly or less than the wild type.

On to “soluble leptin receptor, endogenous in human serum (from UniProt P48357 22-839)”, for which, in the experiment with recombinant human leptin, the binding result is reported as “binds”.

B1: chicken leptin (ligand, UniProt O42164 19-163, looked up)
chain: VPCQIFQDDTKTLIKTIVTRINDISHTSVSAKQRVTGLDFIPGLHPILSLSKMDQTLAVYQQVLTSLPSQNVLQIANDLENLRDLLHLLAFSKSCSLPQTSGLQKPESLDGVLEASLYSTEVVALSRLQGSLQDILQQLDISPEC
notes: also called chLeptin; ChLeptin
For the molecule B1, the binding entry in experiment [1] is given as “binds”.
